Data source: PubChem BioAssay AID686938 (Drosophila RNAi Screening Center, 2013)

- Assay: 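Fly genes required for calcium entry once internal stores are emptied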 (primary screen)
- Cells: Drosophila S2R+ cells
- Knock-down reagent: long dsRNA against Drosophila genes, about 0.25 µg dsRNA per well, roughly 10,000 cells
- Timing: 5 days of knock-down before the calcium assay
- Challenge: thapsigargin (SERCA pump blocker) to empty calcium stores; entry signal taken 4 min after adding it
- Read-out: 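Per-well fluo-4 fluorescence in two replicates, unnormalised, measured in resting cells and 4 min after store depletion by the SERCA blocker thapsigargin; ratio of the two present in few wells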
- Scale: calcium entry signal: higher = stronger calcium signal after store depletion; entry to resting ratio: higher = more calcium entry relative to resting level; resting calcium signal: higher = higher resting calcium signal
- Units: calcium entry signal in fluorescence units; resting calcium signal in fluorescence units
- Rule for the call: 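Called when the plate z-score of the entry-to-rest ratio, mean of duplicates, falls below −3; wells with low overall dye signal (Fmax z below −2) or more than five off-targets excluded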
- Calls: active = strongly reduced calcium entry; inactive = no strong reduction
In all, the deposit lists about 23,000 reagents; this is a random part of those that have a named target and a result. In the full data, 75 (0.33%) were called active. 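Raw plate signals without normalisation; calls rest on plate z-scores that were not deposited; ratio present for only 364 wells.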 Not stated in the record: the dose of the treatment.

Klp54D [DRSC07450] → calcium entry signal, replicate 1 = 5.15e7; calcium entry signal, replicate 2 = 5.26e7; resting calcium signal, replicate 1 = 2.25e7; resting calcium signal, replicate 2 = 2.28e7; Outcome = inactive
CG13801 [DRSC08335] → calcium entry signal, replicate 1 = 3.47e7; calcium entry signal, replicate 2 = 4.17e7; resting calcium signal, replicate 1 = 1.77e7; resting calcium signal, replicate 2 = 1.89e7; Outcome = inactive
MTPAP [DRSC18585] → calcium entry signal, replicate 1 = 4.31e7; calcium entry signal, replicate 2 = 3.71e7; entry to resting ratio = 2.2; resting calcium signal, replicate 1 = 1.99e7; resting calcium signal, replicate 2 = 1.63e7; Outcome = inactive
CG5762 [DRSC15869] → calcium entry signal, replicate 1 = 4.13e7; calcium entry signal, replicate 2 = 2.91e7; resting calcium signal, replicate 1 = 1.95e7; resting calcium signal, replicate 2 = 1.44e7; Outcome = inactive
CG15597 [DRSC12283] → calcium entry signal, replicate 1 = 3.75e7; calcium entry signal, replicate 2 = 1.82e7; resting calcium signal, replicate 1 = 1.80e7; resting calcium signal, replicate 2 = 9.71e6; Outcome = inactive
tara [DRSC17076] → calcium entry signal, replicate 1 = 3.55e7; calcium entry signal, replicate 2 = 5.29e7; resting calcium signal, replicate 1 = 1.88e7; resting calcium signal, replicate 2 = 8.58e7; Outcome = inactive
tara [DRSC23014] → calcium entry signal, replicate 1 = 3.90e7; calcium entry signal, replicate 2 = 3.40e7; resting calcium signal, replicate 1 = 1.86e7; resting calcium signal, replicate 2 = 1.58e7; Outcome = inactive
CG15136 [DRSC02436] → calcium entry signal, replicate 1 = 3.54e7; calcium entry signal, replicate 2 = 2.44e7; resting calcium signal, replicate 1 = 1.61e7; resting calcium signal, replicate 2 = 1.21e7; Outcome = inactive
CG14634 [DRSC17944] → calcium entry signal, replicate 1 = 4.81e7; calcium entry signal, replicate 2 = 4.90e7; entry to resting ratio = 2; resting calcium signal, replicate 1 = 2.38e7; resting calcium signal, replicate 2 = 2.11e7; Outcome = inactive
btz [DRSC14566] → calcium entry signal, replicate 1 = 3.47e7; calcium entry signal, replicate 2 = 4.53e7; resting calcium signal, replicate 1 = 1.62e7; resting calcium signal, replicate 2 = 2.13e7; Outcome = inactive
Cyp301a1 [DRSC07365] → calcium entry signal, replicate 1 = 3.09e7; calcium entry signal, replicate 2 = 4.50e7; resting calcium signal, replicate 1 = 1.54e7; resting calcium signal, replicate 2 = 1.93e7; Outcome = inactive

Targets above whose gene name starts with T or t:
tara [DRSC17076] → calcium entry signal, replicate 1 = 3.55e7; calcium entry signal, replicate 2 = 5.29e7; resting calcium signal, replicate 1 = 1.88e7; resting calcium signal, replicate 2 = 8.58e7; Outcome = inactive
tara [DRSC23014] → calcium entry signal, replicate 1 = 3.90e7; calcium entry signal, replicate 2 = 3.40e7; resting calcium signal, replicate 1 = 1.86e7; resting calcium signal, replicate 2 = 1.58e7; Outcome = inactive

The results go on:
Nedd4 [DRSC11234] → calcium entry signal, replicate 1 = 6.47e7; calcium entry signal, replicate 2 = 7.53e7; resting calcium signal, replicate 1 = 2.59e7; resting calcium signal, replicate 2 = 2.64e7; Outcome = inactive
Nedd4 [DRSC21548] → calcium entry signal, replicate 1 = 4.69e7; calcium entry signal, replicate 2 = 3.87e7; resting calcium signal, replicate 1 = 2.53e7; resting calcium signal, replicate 2 = 1.77e7; Outcome = inactive
MCPH1 [DRSC06309] → calcium entry signal, replicate 1 = 2.92e7; calcium entry signal, replicate 2 = 3.14e7; resting calcium signal, replicate 1 = 1.30e7; resting calcium signal, replicate 2 = 1.53e7; Outcome = inactive
MCPH1 [DRSC07308] → calcium entry signal, replicate 1 = 3.78e7; calcium entry signal, replicate 2 = 3.76e7; resting calcium signal, replicate 1 = 1.91e7; resting calcium signal, replicate 2 = 1.72e7; Outcome = inactive
MCPH1 [DRSC22536] → calcium entry signal, replicate 1 = 2.33e7; calcium entry signal, replicate 2 = 2.95e7; resting calcium signal, replicate 1 = 1.24e7; resting calcium signal, replicate 2 = 1.21e7; Outcome = inactive
CG2854 [DRSC18595] → calcium entry signal, replicate 1 = 4.50e7; calcium entry signal, replicate 2 = 4.68e7; entry to resting ratio = 2.2; resting calcium signal, replicate 1 = 2.07e7; resting calcium signal, replicate 2 = 2.06e7; Outcome = inactive
Hasp [DRSC02022] → calcium entry signal, replicate 1 = 3.67e7; resting calcium signal, replicate 1 = 2.04e7; Outcome = inactive
Nadk2 [DRSC07072] → calcium entry signal, replicate 1 = 4.42e7; calcium entry signal, replicate 2 = 3.89e7; resting calcium signal, replicate 1 = 1.85e7; resting calcium signal, replicate 2 = 1.83e7; Outcome = inactive
CG9360 [DRSC20180] → calcium entry signal, replicate 1 = 3.37e7; calcium entry signal, replicate 2 = 3.85e7; resting calcium signal, replicate 1 = 1.69e7; resting calcium signal, replicate 2 = 1.85e7; Outcome = inactive
CG14851 [DRSC14975] → calcium entry signal, replicate 1 = 2.73e7; calcium entry signal, replicate 2 = 3.59e7; resting calcium signal, replicate 1 = 1.25e7; resting calcium signal, replicate 2 = 4.84e7; Outcome = inactive
CG14851 [DRSC21500] → calcium entry signal, replicate 1 = 2.68e7; calcium entry signal, replicate 2 = 4.08e7; resting calcium signal, replicate 1 = 1.53e7; resting calcium signal, replicate 2 = 1.77e7; Outcome = inactive
